{
  "sequences": {"note": "Sequences of proteins named here, by UniProt entry; tags and fusion partners are left off. Residues count along the entry.", "UniProt P25705, 44-553, species assumed": "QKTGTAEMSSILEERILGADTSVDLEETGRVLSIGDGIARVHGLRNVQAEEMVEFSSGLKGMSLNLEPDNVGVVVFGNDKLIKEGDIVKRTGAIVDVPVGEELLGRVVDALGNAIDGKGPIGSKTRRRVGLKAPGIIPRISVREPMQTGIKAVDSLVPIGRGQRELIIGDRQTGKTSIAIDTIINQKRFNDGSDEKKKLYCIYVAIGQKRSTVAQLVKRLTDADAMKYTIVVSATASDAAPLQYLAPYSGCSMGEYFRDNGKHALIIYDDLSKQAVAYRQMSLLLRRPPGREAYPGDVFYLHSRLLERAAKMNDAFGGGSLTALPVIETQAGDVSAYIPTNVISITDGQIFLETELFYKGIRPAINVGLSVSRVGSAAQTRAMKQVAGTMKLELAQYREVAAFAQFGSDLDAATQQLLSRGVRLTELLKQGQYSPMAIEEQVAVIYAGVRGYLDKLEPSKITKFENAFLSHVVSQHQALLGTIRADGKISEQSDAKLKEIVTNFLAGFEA", "UniProt P06576, 48-529, species assumed": "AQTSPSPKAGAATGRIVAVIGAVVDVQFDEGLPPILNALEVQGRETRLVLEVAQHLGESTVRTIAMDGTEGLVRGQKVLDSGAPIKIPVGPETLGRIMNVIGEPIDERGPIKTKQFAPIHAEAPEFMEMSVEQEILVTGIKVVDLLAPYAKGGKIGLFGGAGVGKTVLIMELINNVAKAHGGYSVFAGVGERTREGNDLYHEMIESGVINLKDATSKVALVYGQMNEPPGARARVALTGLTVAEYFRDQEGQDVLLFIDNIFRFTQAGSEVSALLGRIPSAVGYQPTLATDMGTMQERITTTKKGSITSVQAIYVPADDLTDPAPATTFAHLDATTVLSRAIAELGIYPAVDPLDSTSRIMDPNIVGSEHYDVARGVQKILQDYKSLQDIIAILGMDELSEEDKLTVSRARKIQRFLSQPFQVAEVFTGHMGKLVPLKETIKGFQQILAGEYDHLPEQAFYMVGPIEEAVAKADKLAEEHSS"},
  "source": "patent US20240285727A1",
  "about": "“NOVEL THERAPEUTIC PEPTIDES FOR NEURODEGENERATION” (UNIVERSITY OF SOUTHERN CALIFORNIA, priority 2021, published 2024)",
  "key": {"SH-SY5Y cells [1]": {"system": "SH-SY5Y cells", "assay": "Amyloid beta toxicity assay (LIVE/DEAD viability)", "assay_type": "cell-based", "settings": "neuronal cells stressed with oligomerized amyloid beta 42 (1 uM); 10 uM peptide", "procedure": "SH-SY5Y cells were differentiated for 4 days, incubated with 10 uM SHMOOSE or SHMOOSE.D47N for 24 hours followed by another incubation with SHMOOSE or SHMOOSE.D47N with or without oligomerized 1 uM amyloid beta 42 (CPC Scientific), prepared as formerly described. A two-color fluorescence cell viability assay (LIVE/DEAD Viability/Cytotoxicity Kit; Invitrogen (cat. L3224) was used to distinguish live cells from dead cells after […] and amyloid beta 42 treatment. The ratio of live to dead cells can be quantified since live cells retain the Calcein AM dye and dead cells with damaged membranes permit entry of the ethidium homodimer dye."}, "SH-SY5Y cells [2]": {"system": "SH-SY5Y cells", "assay": "Seahorse assay (oxygen consumption rate)", "assay_type": "cell-based", "procedure": "SH-SY5Y Cells were Plated into 96-Well Plates at a Density of 10,000 Cells. The following day, cells were differentiated for a total of 4 days. Thereafter, SHMOOSE or SHMOOSE.D47N were incubated for 24 hours, followed by cell real-time oxygen consumption rates measurements using XF96 Extracellular Flux Analyzer (Seahorse Bioscience). ATP turnover and maximum respiratory capacity were calculated after challenging cells with oligomycin and FCCP (carbonyl cyanide 4-[trifluoromethoxy]phenylhydrazone). Additionally, glycolytic rate was determined using extracellular acidification rate (ECAR) and individually reported relative to basal level in percentage. All readings were normalized to total DNA content using Hoechst 33342."}, "ATP5A1": {"molecular_target": "ATP5A1 (Homo sapiens, UniProt P25705)", "assay": "Binding to ATP5 subunit outside of a cell"}, "mitochondrial superoxide": {"system": "mitochondrial superoxide", "assay": "Mitochondrial superoxide in cells", "assay_type": "cell-based"}, "ATP5B": {"molecular_target": "ATP5B (Homo sapiens, UniProt P06576)", "assay": "Binding to ATP5 subunit outside of a cell"}, "ATP5": {"system": "ATP5", "assay": "Immunoprecipitation of SHMOOSE with ATP5", "assay_type": "binding", "settings": "immunoprecipitation from cells"}, "ATP50": {"molecular_target": "T1, ATP50 (Homo sapiens, UniProt P48047)", "T1 sequence (P48047 24-213)": "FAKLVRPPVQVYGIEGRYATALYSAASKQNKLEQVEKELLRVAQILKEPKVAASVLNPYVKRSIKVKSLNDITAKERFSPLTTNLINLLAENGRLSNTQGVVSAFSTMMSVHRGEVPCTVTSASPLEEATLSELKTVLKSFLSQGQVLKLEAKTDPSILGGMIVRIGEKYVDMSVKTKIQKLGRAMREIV", "assay": "Binding to ATP5 subunit outside of a cell"}, "mitofilin": {"molecular_target": "T2, mitofilin (Homo sapiens, UniProt Q16891)", "T2 construct": "purchased OriGene", "T2 sequence (Q16891 34-758)": "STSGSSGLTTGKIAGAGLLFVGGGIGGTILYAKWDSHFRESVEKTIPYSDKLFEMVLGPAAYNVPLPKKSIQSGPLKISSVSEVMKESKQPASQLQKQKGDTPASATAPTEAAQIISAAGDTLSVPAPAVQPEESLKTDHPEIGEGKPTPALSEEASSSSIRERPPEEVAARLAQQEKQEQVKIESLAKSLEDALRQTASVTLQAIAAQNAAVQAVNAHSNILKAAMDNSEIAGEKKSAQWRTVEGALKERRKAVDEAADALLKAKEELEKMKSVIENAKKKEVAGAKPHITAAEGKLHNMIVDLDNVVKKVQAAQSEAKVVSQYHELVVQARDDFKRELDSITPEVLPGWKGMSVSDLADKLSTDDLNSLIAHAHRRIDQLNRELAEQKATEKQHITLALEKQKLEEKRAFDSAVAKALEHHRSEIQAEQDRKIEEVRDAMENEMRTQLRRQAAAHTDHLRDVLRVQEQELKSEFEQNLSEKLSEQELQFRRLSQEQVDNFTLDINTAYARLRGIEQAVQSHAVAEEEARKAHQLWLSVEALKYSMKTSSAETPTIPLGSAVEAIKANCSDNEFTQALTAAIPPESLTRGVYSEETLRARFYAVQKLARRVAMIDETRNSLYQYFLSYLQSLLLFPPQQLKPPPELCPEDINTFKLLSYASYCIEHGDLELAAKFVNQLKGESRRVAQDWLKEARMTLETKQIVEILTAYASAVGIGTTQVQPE", "assay": "SHMOOSE-mitofilin protein interaction (co-immunoprecipitation, reciprocal dot blot)", "assay_type": "binding", "settings": "reciprocal dot-based immunoblots, recombinant proteins", "procedure": "To identify the SHMOOSE interactome, multiple experiments were conducted. First, 1.5 nmol of SHMOOSE was spiked into 1 mg SH-SY5Y cell lysate for 6 hours at 4° C. Lysates were prepared using Thermo Pierce CoIP lysis buffer with 1× Thermo protease inhibitor cocktail and 1 mM PMSF. Briefly, cells were washed with ice-cold DPBS twice, lysed for 15 minutes on ice, and centrifuged for 10 minutes at 12,000 RCF at 4° C. The rationale for conducting this experiment was to ensure identical protein amounts between conditions and avoid differential protein expression caused by SHMOOSE treatment to cells. After 6 hours, SHMOOSE was immunoprecipitated from samples using Dynabeads A conjugated to 5 ug of custom c-terminus SHMOOSE antibody. As a negative control, SHMOOSE-spiked lysates were also immunoprecipitated using 5 ug rabbit IgG. Proteins were eluted from beads using 50 mM Glycine pH 2.8, and eluents were pH neutralized using Tris HCl pH 7.5. Complete eluents were then processed for protein identification using LC-MS. […] Statistical analysis of MaxQuant label-free quantitation data was performed with the artMS Bioconductor package, which performs the relative quantification of protein abundance using the MSstats Bioconductor package (default parameters). […]"}, "SH-SY5Y cells [3]": {"system": "SH-SY5Y cells", "assay_type": "cell-based", "settings": "mitofilin siRNA; 10 uM SHMOOSE; MTT"}},
  "note": "At least one peptide structure holds a part that was inferred or is arguable (an end, a ring closure or a residue). Ends that are not written are not given here.",
  "data": [
    {"sequence": "MPPCLTTWLSQLLKDNSYPLVLGPKNFGATPNKSNNHAHYYNHPNPDFPNSPHPYHPR [SHMOOSE]", "values": [
      {"measurement": "protection against cell death", "setting": "SH-SY5Y cells [1]", "result": "protected against cell death"},
      {"measurement": "mitochondrial spare capacity", "setting": "SH-SY5Y cells [2]; after oligomycin and FCCP, 24 hours incubation", "result": "boosted mitochondrial spare capacity"},
      {"measurement": "increase of basal oxygen consumption rate", "setting": "SH-SY5Y cells [2]; compared to SHMOOSE.D47N", "result": "approximately 20%"},
      {"measurement": "binding to ATP5A1", "setting": "ATP5A1", "result": "not binding"},
      {"measurement": "mitochondrial superoxide", "setting": "mitochondrial superoxide", "result": "reduces mitochondrial superoxide"},
      {"measurement": "binding to ATP5B", "setting": "ATP5B", "result": "binding"},
      {"measurement": "binding to ATP5", "setting": "ATP5", "result": "binds ATP5"},
      {"measurement": "binding to ATP50", "setting": "ATP50", "result": "binding"},
      {"measurement": "binding to mitofilin", "setting": "mitofilin", "result": "confirming binding"},
      {"measurement": "effect on neural cell metabolic activity after mitofilin knockdown", "setting": "SH-SY5Y cells [3]", "result": "no effect"}
    ]}
  ]
}
